Results as given in PubChem BioAssay AID2685 (National Center for Advancing Translational Sciences (NCATS), 2010).
Screen size: about 320,000 compounds; about 2,100 (0.66%) were called active. Inconclusive results, whose numbers are uncertain, are shown with a selection of clear calls. The call rests on the fitted dose curve; in most records, active means well fitted inhibition curve with a large enough effect in the signal ratio, with a control signal flat (not every such curve was filed as active); inconclusive means small, poorly fitted or top-dose-only effect, or effect the other way, or a change in a side signal; inactive means flat fitted curve, though single readings scatter; the % refers to the signal ratio. A potency beside an inconclusive call is a rough fit, not a confirmed value.

Experiment: qHTS Assay for Lipid Storage Modulators in Drosophila S3 Cells
Conditions: BODIPY lipid droplet fluorescence, 18-24 h, cells fed with added oleic acid; lipid storage change, negative = inhibition: at 46.1 µM (top of the series) unless noted
How it was run: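 Drosophila S3 cells got compounds at several concentrations plus oleic acid (400 uM solution). Laser-scanning cytometry with 488 nm excitation read lipid droplets at 500-530 nm and cells at 575-640 nm. Percent activity was relative to 20 uM Triacsin C.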
On the % scale 0 is the no-effect control and ±100 the full control effect; potency means the concentration at half of the fitted maximal effect.

SMILES | Potency | lipid storage change, negative = inhibition
CC(C)c1ccc(NCCC(=O)c2cccs2)cc1 | inconclusive: 23100 nM [activator, single point] | 
O=C(c1cccc(Cl)c1)N1CCC(N2CCC(C(=O)N3CCOCC3)CC2)CC1 |  | inactive
CN(C)CC(C)(C)NS(=O)(=O)c1ccc(Cl)cc1 | inconclusive: 206 nM [falling, full curve, poor fit] | 
Cc1ccc(NC(=O)c2cc(S(=O)(=O)N3CCCCC3)c[nH]2)cc1C | inconclusive: 580 nM [falling, full curve] | 
CCC(=O)Nc1cc(Cl)ccc1C(=O)O | inconclusive: 4.1 nM [falling, full curve, poor fit] | 
O=C(Nc1ccc2ccccc2n1)c1ccccc1 |  | inconclusive: 12.8%
CCCSCC(=O)Nc1ncc2c(n1)-c1ccccc1CC2 | inconclusive: 2910 nM [activator, single point] | 
CC(C)CN(C(=O)c1ccc2c(c1)OCO2)C1CCS(=O)(=O)C1 (stereo not given) |  | inconclusive: 12.4%
CCOC(=O)N1CCN(C(=O)C(=O)N/N=C/c2ccc(OC)cc2OC)CC1 |  | inconclusive: -20.7%
S=C(NCC(c1ccco1)N1CCCC1)Nc1ccccc1 (stereo not given) |  | inconclusive: 14.9%
COc1ccc(-c2cc(C(=O)N3CCN(S(=O)(=O)c4ccccc4)CC3)[nH]n2)cc1 |  | inconclusive: -11.6%
COc1ccc2c(c1OC)C(=O)OC2CC(=O)c1ccc(O)c(O)c1 (stereo not given) |  | inconclusive: -0.73%
O=C(O)C=C(Br)Br | inconclusive: 164 nM [falling, full curve, poor fit] | 
Cc1cccc(-n2ncc3c(=O)[nH]c(SCC(=O)N4CC(=O)Nc5ccccc54)nc32)c1 | inconclusive: 164 nM [falling, full curve, poor fit] | 
COc1cccc(CNS(=O)(=O)/C=C/c2ccc(OC)c(OC)c2)c1 |  | inconclusive: 15.3%
Cc1nn(Cc2ccc(F)cc2)c(C)c1NC(=O)c1cc(-c2ccc3c(c2)OCO3)on1 | inconclusive: 461 nM [activator, full curve, poor fit] | 
CCCc1nc2c(c(=O)c3ccccc3n2C)c(=O)n1-c1ccc(F)cc1 |  | inconclusive: 25.3%
COc1ccc(N2C(=O)c3ccccc3NC23CCC(C)CC3)cc1 (stereo not given) |  | inconclusive: -142%
CC(C)Sc1nnc([C@@H]2CCCN2C(=O)OC(C)(C)C)o1 | active: 32600 nM | 
CC(C)(C)c1ccc(C(=O)Nc2ccc(C(=O)N3CCCC3)cc2)cc1 | inconclusive: 29100 nM [falling, single point] | 
COc1ccc(C2c3[nH]c4ccccc4c3C[C@H]3C(=O)N(c4ccccc4C(=O)NCCN4CCOCC4)C(=O)N23)cc1 (stereo not given in full) | inconclusive: 651 nM [activator, partial curve, poor fit] | 
COc1cccc(N(CC(=O)NCc2ccco2)C(=O)CCC(=O)Nc2nccs2)c1 |  | inconclusive: 20.2%
CCc1ccc2nc(NC(=O)C3CCN(c4ncnc5sc(C)c(C)c45)CC3)sc2c1 | inconclusive: 6510 nM [falling, partial curve, poor fit] | 
COc1ccc(NC(=O)C2COc3ccccc3O2)cc1S(=O)(=O)N1CCOCC1 (stereo not given) |  | inconclusive: 15.5%
CCCC1(c2ccccc2)NC(=O)N(CCN2C(=O)c3ccccc3C2=O)C1=O (stereo not given) |  | inconclusive: -58.2%

SMILES | Potency | lipid storage change, negative = inhibition
COc1cc(/C=C(/NC(=O)c2ccc(Cl)cc2Cl)C(=O)O)cc(OC)c1OC |  | inconclusive: 9.01%
CSc1ccccc1C(=O)N1CCC2(CC1)CC(=O)c1ccccc1O2 |  | inconclusive: 15.8%
CCNC(=S)N1CCc2cc(OC)c(OC)cc2C1COc1ccccc1OC (stereo not given) | active: 11600 nM | 
Cn1nc(C(=O)Nc2ccc(Cl)cc2)cc1C(=O)Nc1ccc(Cl)cc1 |  | inconclusive: -0.0868%
CC1(C)CC(OC(=O)c2ccco2)CC(C)(C)N1O |  | inconclusive: -15.6%
CCOc1ccccc1NC(=O)CCCc1ccc(OC)c(C)c1 | inconclusive: 6510 nM [activator, single point] | 
COc1ccc([C@H]2CC(=O)C=C(c3ccccc3C(F)(F)F)C2)cc1 |  | inconclusive: 10.1%
O=C(COC(=O)c1n[nH]c2ccccc12)NCc1ccccc1 | inconclusive: 29100 nM [activator, single point] | 
O=C(c1ccc(F)cc1F)N1CCN(S(=O)(=O)c2ccc3c(c2)OCCO3)CC1 |  | inconclusive: 56.7% [activator]
C=CCn1c(CCNC(=O)c2ccccc2F)nnc1SCC(=O)Nc1nc(C)cs1 |  | inconclusive: -11.1%
N#Cc1ccc(C(=O)N2CCN(C(=O)C3CCCO3)CC2)cc1 (stereo not given) |  | inconclusive: 0.745%
COc1cccc(OCC(O)CN2CCN(c3ccc(Cl)cc3)CC2)c1 (stereo not given) | inconclusive: 3260 nM [activator, full curve, poor fit] | 
O=C(CSCc1c(F)cccc1Cl)NCCc1ccccc1 | inconclusive: 29100 nM [activator, single point] | 
COc1ccccc1CNC(=O)c1ccccc1N(C)S(C)(=O)=O | inconclusive: 29100 nM [cytotoxic, single point] | 
O=C(NC1CC2CCCC(C1)N2C(=O)Nc1ccccc1Cl)C1CC1 (stereo not given) |  | inconclusive: 51.8%
Cc1ccc(-c2nn(-c3ccccc3)cc2C2CC(c3cccs3)=NN2C(=O)CCC(=O)O)cc1 (stereo not given) |  | inconclusive: -38.1%
COCCCNC(=O)C1CCCN(C(=O)Nc2ccc(OC)cc2)C1 (stereo not given) |  | inconclusive: -34.4%
FC(F)(F)c1cccc(CNc2ncccc2-c2nc3cc(Cl)ccc3o2)c1 |  | inconclusive: -55.1% [at 0.0737 µM]
CC(C)(C)c1cc(C(=O)NNS(=O)(=O)c2ccccc2)n[nH]1 |  | inconclusive: -7.07%
CCC(=O)NC(=S)NNC(=O)c1ccc([N+](=O)[O-])cc1 |  | inconclusive: -35.4%
CC(C)(C)OC(=O)N1CCC(CNC(=O)Nc2ccccc2)CC1 | inconclusive: 32600 nM [falling, single point] | 
COCCn1c(=N)c(C(=O)NCCc2ccc(OC)cc2)cc2c(=O)n3cccc(C)c3nc21 | inconclusive: 920 nM [activator, full curve, poor fit] | 
Cc1ccc(Nc2nnc(SCc3nc4ccccc4c(=O)[nH]3)s2)cc1 |  | inconclusive: -16.1%
Cc1ccc2[nH]cc(CCNC(=O)c3ccco3)c2c1 | inconclusive: 3660 nM [falling, single point] | 
CC(C)c1nc2c(s1)CCc1onc(-c3ccc(Cl)cc3)c1-2 | inconclusive: 2910 nM [falling, single point] | 

SMILES | Potency | lipid storage change, negative = inhibition
O=C(NCC(=O)N1CCN(Cc2ccccc2)CC1)c1ccc(Cl)cc1 |  | inconclusive: 156%
CCOCCCNC(=O)C(NC(=O)CC1NC(=O)NC1=O)c1ccc(Cl)cc1 (stereo not given) |  | inconclusive: -18.8%
C=CCNC(=S)N/N=C(\C)c1ccccn1 | inconclusive: 116 nM [falling, full curve] | 
COc1cccc(NC(=O)CN(C)C(=O)c2cc(-c3ccc(C)o3)nc3ccccc23)c1 |  | inconclusive: 9.07%
CCOc1ccc(S(=O)(=O)Nc2ccccc2C(=O)NCc2ccco2)cc1 |  | inconclusive: 8.65%
COc1ccc(CNC(=O)C2CC(c3cccc([N+](=O)[O-])c3)=NO2)cc1 (stereo not given) |  | inconclusive: 9.08%
COc1ccc(C)cc1-n1c(SCC(=O)NCC2CCCO2)nc2c([nH]c3ccccc32)c1=O (stereo not given) |  | inconclusive: 14.2%
CNC(C)C#Cc1ccc2sc3cccc(OC)c3c(=O)c2c1 (stereo not given) | inconclusive: 1640 nM [activator, partial curve] | 
COc1ccc(OC)c2c(C)cc(N3CCN(C(=O)c4ccc(Cl)cc4)CC3)nc12 |  | inconclusive: 94.7%
Cc1cc2ccccc2n2c(SCC(=O)N3CCN(C(=O)c4ccco4)CC3)nnc12 |  | inconclusive: 20.4%
CCC(=O)Nc1cccc(C2=NOC3(C2)C[C@@H](C(N)=O)N(C(=O)COc2ccc(Cl)cc2)C3)c1 (stereo not given in full) |  | inconclusive: 16.4%
Cc1c(NC(=O)c2ccc([N+](=O)[O-])o2)cccc1-c1nc2ncccc2o1 | inconclusive: 6510 nM [activator, single point] | 
CC(C)=C1C(=O)NN(c2cccc(Cl)c2)C1=O |  | inconclusive: -26%
CC(C)Cc1nc2oc3c(Cl)ncnc3c2c2c1CCCC2 |  | inconclusive: 4.45%
COC(=O)C1CCN(C(=O)NC(C)(C)C)CC1 |  | inconclusive: -45.4%
C/C(=N\N(c1ccccc1)c1ccccc1)c1ccco1 |  | inconclusive: 7.22%
CC(C)C(=O)N1CCN(c2ccc(NC(=O)c3ccc4c(c3)OCCO4)cc2Cl)CC1 |  | inconclusive: -31.9%
Cn1c(=O)c2c(nc(N3CCc4ccccc4C3)n2C)n(C)c1=O |  | inconclusive: -6.33%
Cc1ccc(NC(=O)COC(=O)c2ccc3c(c2)OCO3)c(C)c1 |  | inconclusive: 14.5%
Cc1ccc(C(C)NC(=O)c2cc(C)oc2C)cc1 (stereo not given) |  | inconclusive: 11.7%
Cc1ccc2c(c1)nnn2C1CCN(S(=O)(=O)c2cccc(S(=O)(=O)N(C)C)c2)CC1 | inconclusive: 0.7 nM | 
O=C(NCCc1cn2ccsc2n1)c1cccs1 |  | inconclusive: 61.2%
CCOC(=O)C1CCCN(c2c(NCCN(C)Cc3ccccc3)c(=O)c2=O)C1 (stereo not given) |  | inconclusive: -1.09%
CCn1c(SC)nnc1C1CCCN(CC(=O)Nc2ccccc2N2CCOCC2)C1 (stereo not given) |  | inconclusive: 327%
O=C(NCc1ccccc1)c1cccc(NS(=O)(=O)c2cccc3cccnc23)c1 | inconclusive: 820 nM [activator, full curve] | 

In the list so far, 4 have a thiophene ring, fused or not:
SMILES | Potency | lipid storage change, negative = inhibition
CC(C)c1ccc(NCCC(=O)c2cccs2)cc1 | inconclusive: 23100 nM [activator, single point] | 
CCc1ccc2nc(NC(=O)C3CCN(c4ncnc5sc(C)c(C)c45)CC3)sc2c1 | inconclusive: 6510 nM [falling, partial curve, poor fit] | 
Cc1ccc(-c2nn(-c3ccccc3)cc2C2CC(c3cccs3)=NN2C(=O)CCC(=O)O)cc1 (stereo not given) |  | inconclusive: -38.1%
O=C(NCCc1cn2ccsc2n1)c1cccs1 |  | inconclusive: 61.2%
